Measurements: patent publication US9775890B2, “Factor Xa inhibitor used with liver-derived progenitor cells” (UNIVERSITÉ CATHOLIQUE DE LOUVAIN, priority 2012, dated 2017)
Counter-ions that a name gives are not always drawn. At least one structure is not confirmed: it was looked up by name or label, or the drawing left a doubt.

What was measured:
[1] = tested on: hALPCs; test: Thromboelastometry (ROTEM) clotting time: modulation of procoagulant activity (PCA) of hALPCs in whole blood; assay type: cell-based, human; conditions: FIG. 13, dose increased up to 5×
Experimental: (§1) Measurements were performed on a ROTEM® delta analyser (Pentapharm, Munich, Germany). ROTEM® assesses the kinetics and quality of clot formation and clot lysis in real-time. The clotting time (CT) is defined as the period of time from the start of the analysis until the start of clot formation, normally until the 2 mm amplitude is reached. The clot formation time is defined as the period until the 20 mm amplitude is reached. The alpha angle is defined as the angle between the centre line and a tangent to the curve through the 2 mm amplitude point, which is the end of the CT. The maximum amplitude of the curve is defined as the maximum clot firmness. The maximum of lysis represents the maximum fibrinolysis detected during the measurement. We focused on CT.
(§2) Briefly, after a short rest period, 300 μl of whole blood was pipetted into a cup pre-warmed at 37° C. Suspended cells were subsequently added to whole blood (5×10exp5 cells if no specification). Twenty μl of trigger reagent containing tissue factor (TF) (Innovin, Siemens, Marburg, Germany. Final dilution 1:17000/0.35 pM) diluted in Owren buffer (Siemens, Marburg, Germany) was then added to the cell-blood mixture followed by the necessary addition of 20 μl of 0.2 M CaCl2. After calcium addition, measurements started automatically. The procoagulant activity (PCA) of cells was also determined without addition of Innovin. […]

[2] = tested on: cells with PCA; test: Analogous thromboelastometry experiments with different direct factor Xa inhibitors plus direct thrombin inhibitor; assay type: cell-based; conditions: present tense
Experimental: as §1, §2

Row | SMILES | Inhibition of hALPCs PCA, dose increased up to 5× [1] | Modulation of PCA of cells by concomitant use of the direct factor Xa inhibitor with a direct thrombin inhibitor (hirudin or bivalirudin) [2]
1 | CO[C@H]1O[C@H](COS(=O)(=O)O)[C@@H](O[C@@H]2O[C@@H](C(=O)O)[C@@H](O[C@H]3O[C@H](COS(=O)(=O)O)[C@@H](O[C@@H]4O[C@H](C(=O)O)[C@@H](O[C@H]5O[C@H](COS(=O)(=O)O)[C@@H](O)[C@H](O)[C@H]5NS(=O)(=O)O)[C@H](O)[C@H]4O)[C@H](OS(=O)(=O)O)[C@H]3NS(=O)(=O)O)[C@H](O)[C@H]2OS(=O)(=O)O)[C@H](O)[C@H]1NS(=O)(=O)O [fondaparinux, 2-deoxy-6-O-sulfo-2-(sulfoamino)-α-D-glucopyranosyl-(1→4)-O-β-D-glucopyranuronosyl-(1→4)-O-2-deoxy-3,6-di-O-sulfo-2-(sulfoamino)-α-D-glucopyranosyl-(1→4)-O-2-O-sulfo-α-L-idopyranouronosyl-(1→4)-O-methyl-2-deoxy-6-O-sulfo-2-(sulfoamino)-α-D-glucopyranoside, decasodium salt] | not fully inhibited | –
2 | COC(=O)[C@H](Cc1cccc(C(=N)N)c1)[C@@H](C)NC(=O)c1ccc(-c2cc[n+]([O-])cc2)cc1 (mixture of isomers) [otamixaban, (2R,3R)-2-{3-[amino(imino)methyl]benzyl}-3-{[4-(1-oxidopyridin-4-yl)benzoyl]amino}butanoate] | – | able to modulate PCA
